Reference: PMC10259659
No constants are given. Whether binding was seen depends on the method and setting. In cells and extracts the contact can be indirect. Some entries that bind do so weakly or less than the wild type. Sequences can lack the tags named with a protein.

Assays:
[1] = molecular target: T1, LST-1^V5 (3xV5 epitope-tagged LST-1) (C. elegans) (UniProt P91820); assay: co-IP; whole worms, without formaldehyde cross-linking and without urea; lysates with or without Benzonase before immunoprecipitation of LST-1^V5 with anti-V5; western blot
T1 sequence: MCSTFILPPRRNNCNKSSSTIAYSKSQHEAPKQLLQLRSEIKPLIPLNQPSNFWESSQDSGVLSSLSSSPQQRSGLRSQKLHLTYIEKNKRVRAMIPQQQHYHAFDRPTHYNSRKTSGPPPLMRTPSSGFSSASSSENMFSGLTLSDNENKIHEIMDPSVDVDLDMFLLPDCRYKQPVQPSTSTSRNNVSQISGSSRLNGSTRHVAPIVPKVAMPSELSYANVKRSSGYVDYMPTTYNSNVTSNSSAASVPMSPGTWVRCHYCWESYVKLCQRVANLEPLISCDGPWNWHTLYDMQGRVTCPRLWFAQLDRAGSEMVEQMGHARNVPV

[2] = molecular target: T1, LST-1^V5 (3xV5 epitope-tagged LST-1) (C. elegans); assay: co-IP; whole worms (glp-1(gf ts) adults with germline tumors, at least 10^6), cross-linked with 1% formaldehyde; lysis buffer with 1 M urea; epitope-tagged LST-1 immunoprecipitated with anti-V5 or anti-FLAG on protein G Dynabeads, 4 h at 4°C with RNase A 10 μg/ml; washes up to 0.5 M NaCl; western blot

B1: FBF-1^FLAG (protein, UniProt Q9N5M6 1-614)
chain: MDQSKMRYTNQFRKTPQKPTSTEVGNHHTPAHSPMAQHETSMWNFNSLNPYFSMLNMNDGMNYARHQQNHIVTSRPPTPLTDLMSLRSFQSFPNVFMPVSRSRTSSFIQSDTDSSRLEPDDFSQNVRYCSTEIDRNNSSSKNDHLKYSRPALSRNSRSFTRSNNVLPTWSLDSNGEMRSRLSLSEVLDSGDLMKFAVDKTGCQFLEKAVKGSLTSYQKFQLFEQVIGRKDDFLKLSTNIFGNYFVQEIIGMSLTTYDDDNIKRQEKLKNFISSQMTDMCLDKFACRVIQSSLQNMDLSLACKLVQALPRDARLIAICVDQNANHVIQKVVAVIPLKNWEFIVDFVATPEHLRQICFDKYGCRVVQTIIEKLTADSINVDLTSAAQHLRERALQRLMTSVTNRCQELATNEYANYIIQHIVSNDDLAVYRECIIEKCLMRNLLSLSQEKFASHVVEKAFLHAPMELLAEMMDEIFDGYMPHPGTGKDALDIMMFHQFGNYVVQCMLTICCDAVSGRRQTKEGSYDHANSFQVWLKKLHSRVTKERHRLSRFSSGKKMIETLAHLRSTHPIYGLQSSGHESFKTDCFSTASEHDGLELEKNGIEEGNLRLMRTFSP
[1]
  binding: binds
[2]
  binding: binds
